Results from publication PMC12431657, “Discovery and mechanistic insights of dibenzoylmethane as a broad spectrum inhibitor of coronavirus” (PLOS Pathogens, 2025).
Structures can show the parent of a compound that is named as a salt. Where two headings read alike, the source gives them in different places. About 60 (2%) of roughly 3,300 compounds showed an effect of 50% or more. The list shows a part of the results.

System: HCoV-OC43
Parameters: species or system RD; HTS, protection from HCoV-OC43 induced cell death, luminescent cell viability (CellCounting-Lite 2.0), inhibition rate
Conditions: 24 h post infection, 1 h compound pre-incubation, 10 µM, inhibitor

OC[C@@H](O)[C@H](O)[C@@H](O)CO [Xylitol]
OC43 Inhibition rate: 0.2%

CC1=CC(=O)C(C(C)C)CC1 (stereo not drawn) [Piperitone]
OC43 Inhibition rate: -0.8%

CCCCCCCCCCCCCCCC(=O)OCC [Ethyl palmitate]
OC43 Inhibition rate: -0.2%

CCCCCC/C=C\CCCCCCCCCCCC(=O)O [Paullinic acid]
OC43 Inhibition rate: -0.2%

N#Cc1cn([C@@H]2O[C@H](CO)[C@@H](O)[C@H]2O)c2ncnc(N)c12 [Toyocamycin]
OC43 Inhibition rate: 30.4%

O=C(O)CCc1c[nH]c2ccccc12 [3-Indolepropionic acid]
OC43 Inhibition rate: -0.1%

CC[C@H](CC[C@@H](C)[C@H]1CC[C@H]2[C@@H]3CC=C4C[C@@H](O)CC[C@]4(C)[C@H]3CC[C@]12C)C(C)C [Beta-Sitosterol (purity>98%)]
OC43 Inhibition rate (OC43 Inhibition rate, 24 h): 0%

COC(=O)c1ccc(OC)cc1 [Methyl anisate]
OC43 Inhibition rate: 3.1%

COc1ccc2ccc(=O)oc2c1CC(=O)C(C)C [Isomerazin]
OC43 Inhibition rate: 1.4%

OC[C@H]1O[C@@H]2O[C@H]3[C@H](O)[C@@H](O)[C@@H](O[C@H]4[C@H](O)[C@@H](O)[C@@H](O[C@H]5[C@H](O)[C@@H](O)[C@@H](O[C@H]6[C@H](O)[C@@H](O)[C@@H](O[C@H]7[C@H](O)[C@@H](O)[C@@H](O[C@H]8[C@H](O)[C@@H](O)[C@@H](O[C@H]9[C@H](O)[C@@H](O)[C@@H](O[C@H]1[C@H](O)[C@H]2O)O[C@@H]9CO)O[C@@H]8CO)O[C@@H]7CO)O[C@@H]6CO)O[C@@H]5CO)O[C@@H]4CO)O[C@@H]3CO [γ-Cyclodextrin]
OC43 Inhibition rate: 0.8%

CC(=O)OC1CC(C)CCC1C(C)C (stereo not drawn) [Menthyl acetate]
OC43 Inhibition rate: 1.8%

COc1cc(O)c(C(=O)/C=C/c2ccccc2)c(O)c1 [Pinostrobin chalcone]
OC43 Inhibition rate: 0%

CN1Cc2c(ccc3c2OCO3)[C@@]2(C)[C@@H](O)Cc3cc4c(cc3[C@@H]12)OCO4 [Corynoline]
OC43 Inhibition rate: 27.7%

COc1cc(O)ccc1CCC(=O)c1ccc(O)cc1 [Loureirin C]
OC43 Inhibition rate: 7%

CCc1cnccn1 [2-Ethylpyrazine]
OC43 Inhibition rate: 4.1%

C[C@@]12C[C@@]3(O)O[C@@H](O1)[C@]1(COC(=O)c4ccccc4)[C@@H]3C[C@]12O[C@@H]1O[C@H](COC(=O)c2cc(O)c(O)c(O)c2)[C@@H](O)[C@H](O)[C@H]1O [Galloylpaeoniflorin]
OC43 Inhibition rate: 0.4%

CN(C)C [Trimethylammonium chloride]
OC43 Inhibition rate: -0.3%

O[C@H]1[C@H]2c3cc4c(cc3CN3CC[C@H](C[C@@H]1O)[C@H]23)OCO4 [Dihydrolycorine]
OC43 Inhibition rate: 0%

CC(=O)OC[C@H]1O[C@@H](O[C@@H]2[C@@H](O)[C@H](O[C@@H]3[C@H](O)C(C)(C)C[C@H]4C5=CC[C@@H]6[C@@]7(C)CC[C@H](O[C@@H]8O[C@H](C(=O)O)[C@@H](O)[C@H](O)[C@H]8O[C@@H]8O[C@H](CO)[C@H](O)[C@H](O)[C@H]8O[C@@H]8O[C@H](CO)[C@@H](O)[C@H](O)[C@H]8O)[C@](C)(CO)[C@@H]7CC[C@@]6(C)[C@]5(C)CC[C@@]34C)OC[C@@H]2O)[C@H](OC(C)=O)[C@@H](OC(C)=O)[C@@H]1OC(C)=O [Soyasaponin Ab]
OC43 Inhibition rate: -0.4%

COc1cc(/C=C/C(=O)O[C@H]2[C@H](O)[C@@H](CO)O[C@@]2(CO)O[C@H]2O[C@H](COC(=O)c3ccc(O)cc3)[C@@H](O)[C@H](O)[C@H]2O)cc(OC)c1O [Tenuifoliside B]
OC43 Inhibition rate: -0.6%

C=C1C[C@@]23CC[C@H]4[C@@](C)(CCC[C@@]4(C)C(=O)O[C@@H]4O[C@H](CO)[C@@H](O)[C@H](O)[C@H]4O)[C@@H]2CC[C@]1(O[C@@H]1O[C@H](CO)[C@@H](O)[C@H](O)[C@H]1O[C@@H]1O[C@H](CO)[C@@H](O)[C@H](O)[C@H]1O)C3 [Stevioside]
OC43 Inhibition rate: 0%

COC(=O)C1=CO[C@@H](O[C@@H]2O[C@H](CO)[C@@H](O)[C@H](O)[C@H]2O)[C@@H]2[C@H](C)O[C@@H](O)C[C@H]12 [Morroniside]
OC43 Inhibition rate: -0.7%

OC[C@H]1OC(O)[C@H](O)[C@H](O)[C@@H]1O (stereo partly drawn) [D-Allose]
OC43 Inhibition rate: -0.3%

Nc1nc2c(ncn2[C@H]2C[C@H](O)[C@@H](CO)O2)c(=O)[nH]1 [2'-Deoxyguanosine]
OC43 Inhibition rate (OC43 Inhibition rate, 24 h): 3.5%

CC(C)=CCC/C(C)=C/COc1c2ccoc2cc2oc(=O)ccc12 [Bergamottin]
OC43 Inhibition rate: -3.1%

CCC/C=C1\OC(=O)C2=C1CCC=C2 [(Z)-Ligustilide]
OC43 Inhibition rate: -0.4%

O=C(O)/C=C\c1ccc2occc2c1O[C@@H]1O[C@H](CO)[C@@H](O)[C@H](O)[C@H]1O [Isopsoralenoside]
OC43 Inhibition rate: -2.6%

C=C1C[C@@]23CC[C@H]4[C@@](C)(CCC[C@@]4(C)C(=O)O[C@@H]4O[C@H](CO)[C@@H](O)[C@H](O)[C@H]4O)[C@@H]2CC[C@]1(O[C@@H]1O[C@H](CO)[C@@H](O)[C@H](O)[C@H]1O[C@@H]1O[C@H](CO)[C@@H](O)[C@H](O[C@@H]2O[C@H](CO)[C@@H](O)[C@H](O)[C@H]2O)[C@H]1O)C3 [Rebaudioside A]
OC43 Inhibition rate: -1.5%

O=C(O)CCC(=O)O [Succinic acid]
OC43 Inhibition rate (OC43 Inhibition rate, 24 h): 3.7%

Cn1cncc1CCN [3-Methylhistamine (dihydrochloride)]
OC43 Inhibition rate: 2.6%

O=C1Cc2ccccc2N1 [Oxindole]
OC43 Inhibition rate: 1.1%

CCCCCC/C=C\CCCCCCCc1cccc(O)c1C(=O)O [Ginkgolic Acid]
OC43 Inhibition rate: -1.9%

N=C(N)N [Guanidine (hydrochloride)]
OC43 Inhibition rate: -7.2%

COc1cc([C@H]2c3cc(O)c(OC)cc3C[C@@H](CO)[C@@H]2CO)ccc1O [(+)-Isolariciresinol]
OC43 Inhibition rate: 0.3%

NC(C(=O)O)C(=O)O [Aminomalonic acid]
OC43 Inhibition rate: -6%

C[C@@H]1CC[C@]2(C(=O)O)CC[C@]3(C)C(=CC[C@@H]4[C@@]5(C)CC[C@H](O)C(C)(C)[C@@H]5CC[C@]43C)[C@@H]2[C@]1(C)O [Pomolic acid]
OC43 Inhibition rate: -2.9%

CC(C)c1cc2c(c(O)c1O)[C@@]13CCCC(C)(C)[C@@H]1[C@H](OC3=O)[C@H]2O [Rosmanol]
OC43 Inhibition rate: 0.5%

Cc1ncc([N+](=O)[O-])n1CC(O)CCl (stereo not drawn) [Ornidazole]
OC43 Inhibition rate: 18.4%

COc1cc(/C=C/C(=O)N2CCC=CC2=O)cc(OC)c1OC [Piperlongumine]
OC43 Inhibition rate: -0.1%

C/C=C(/C)C(=O)O[C@@H]1[C@H](OC(=O)CC(C)C)c2c(ccc3ccc(=O)oc23)OC1(C)C [Praeruptorin C]
OC43 Inhibition rate: 0%

COc1ccc(-c2coc3cc(O)c(OC)c(O)c3c2=O)cc1 [Irisolidone]
OC43 Inhibition rate: 0.3%

O=C(O)CCc1ccc(O)cc1O [3-(2,4-Dihydroxyphenyl)propanoic acid]
OC43 Inhibition rate: -0.3%

O=C(O)c1ccc2c(c1)C(=O)c1ccccc1C2=O [Anthraquinone-2-carboxylic acid]
OC43 Inhibition rate: 0.2%

CC(=O)O[C@@H]1C[C@@]23C[C@@]24CC[C@H](O[C@@H]2OC[C@@H](O)[C@H](O)[C@H]2O)C(C)(C)[C@@H]4CC[C@H]3[C@]2(C)C[C@@H]3O[C@]4(C[C@@H](C)[C@@H]3[C@@]12C)OC[C@@]1(C)O[C@@H]41 [26-Deoxyactein]
OC43 Inhibition rate: 0.8%

CC(=O)[C@@]1(O)CC[C@H]2[C@@H]3CC=C4CC(O)CC[C@]4(C)[C@H]3CC[C@@]21C (stereo partly drawn) [17a-Hydroxypregnenolone]
OC43 Inhibition rate: 1.3%

C[C@H]1[C@H](C)CC[C@]2(C(=O)O)CC[C@]3(C)C(=CC[C@@H]4[C@@]5(C)CCC(=O)C(C)(C)[C@@H]5CC[C@]43C)[C@H]12 [Ursonic acid]
OC43 Inhibition rate: -1.5%

CCOC(=O)CC(C)O (stereo not drawn) [Ethyl 3-hydroxybutyrate]
OC43 Inhibition rate: 0.8%

CC(=O)CC(=O)CCC(=O)O [4,6-Dioxoheptanoic acid]
OC43 Inhibition rate: -0.3%

Oc1cc(O)c2cc(O)c(-c3cc(O)c(O)c(O)c3)[o+]c2c1 [Delphinidin (chloride)]
OC43 Inhibition rate: -1.7%

C[C@@H]1CC[C@]2(C(=O)O[C@@H]3O[C@H](CO)[C@@H](O)[C@H](O)[C@H]3O)CC[C@]3(C)C(=CC[C@@H]4[C@@]5(C)CC[C@H](O)[C@](C)(C(=O)O)[C@@H]5CC[C@]43C)[C@@H]2[C@]1(C)O [Ilexsaponin A]
OC43 Inhibition rate: -0.6%

OC[C@H]1O[C@@H]2O[C@H]3[C@H](O)[C@@H](O)[C@@H](O[C@H]4[C@H](O)[C@@H](O)[C@@H](O[C@H]5[C@H](O)[C@@H](O)[C@@H](O[C@H]6[C@H](O)[C@@H](O)[C@@H](O[C@H]7[C@H](O)[C@@H](O)[C@@H](O[C@H]1[C@H](O)[C@H]2O)O[C@@H]7CO)O[C@@H]6CO)O[C@@H]5CO)O[C@@H]4CO)O[C@@H]3CO [α-Cyclodextrin]
OC43 Inhibition rate: -0.9%

COc1ccc2ccc(=O)oc2c1 [Herniarin]
OC43 Inhibition rate: -2.4%

CCCCCCC[C@H](O)CC(=O)CCc1ccc(O)c(OC)c1 [8-Gingerol]
OC43 Inhibition rate: 2.5%

CC[C@@]1(O)C(=O)OCc2c1cc1n(c2=O)Cc2cc3c([N+](=O)[O-])cccc3nc2-1 [Rubitecan]
OC43 Inhibition rate: 3%

O=c1oc2cc(O)ccc2c2cc(O)c(O)cc12 [Urolithin C]
OC43 Inhibition rate: 4.7%

CCCCOC(=O)/C=C\C(=O)OCCCC [Dibutyl maleate]
OC43 Inhibition rate: 0.3%

COc1ccc(CC2c3cc(OC)c(OC)cc3CCN2C)cc1OC (racemic) [DL-Laudanosine]
OC43 Inhibition rate: 0.1%
